The experiment has as its system Enterococcus faecalis. As to the kind of experiment: MIC determination. In kind it is cell-based. Conditions: data not shown.

In patent US9770530B2, “Tissue substitute material with biologically active coating” (LACERTA TECHNOLOGIES INC., priority 2013, dated 2017) one finds MIC data, which are given here for one compound.

In brackets after ≈: the same amount, converted by molar mass.

As a reminder, the MIC is the least concentration at which growth counts as inhibited. Low readings indicate a more susceptible organism, high ones a less susceptible organism.

`CN[C@H](CC(C)C)C(=O)N[C@H]1C(=O)N[C@@H](CC(N)=O)C(=O)N[C@H]2C(=O)N[C@H]3C(=O)N[C@H](C(=O)N[C@H](C(=O)O)c4cc(O)cc(O)c4-c4cc3ccc4O)[C@H](O)c3ccc(c(Cl)c3)Oc3cc2cc(c3O[C@@H]2O[C@H](CO)[C@@H](O)[C@H](O)[C@H]2O[C@H]2C[C@](C)(N)[C@H](O)[C@H](C)O2)Oc2ccc(cc2Cl)[C@H]1O` [vancomycin] registered a minimal inhibitory concentration (MIC) of 0.2 µg/mL (≈ 0.138 µM).
